Measurements: the supplement of paper PMC10849652
The list shows a part of the results.

The chains behind the UniProt entries cited, without tags or fusion partners. Where a name states a change or a piece, a line headed by the entry shows the natural chain unless it says otherwise.
UniProt O75367, whole entry, looked up: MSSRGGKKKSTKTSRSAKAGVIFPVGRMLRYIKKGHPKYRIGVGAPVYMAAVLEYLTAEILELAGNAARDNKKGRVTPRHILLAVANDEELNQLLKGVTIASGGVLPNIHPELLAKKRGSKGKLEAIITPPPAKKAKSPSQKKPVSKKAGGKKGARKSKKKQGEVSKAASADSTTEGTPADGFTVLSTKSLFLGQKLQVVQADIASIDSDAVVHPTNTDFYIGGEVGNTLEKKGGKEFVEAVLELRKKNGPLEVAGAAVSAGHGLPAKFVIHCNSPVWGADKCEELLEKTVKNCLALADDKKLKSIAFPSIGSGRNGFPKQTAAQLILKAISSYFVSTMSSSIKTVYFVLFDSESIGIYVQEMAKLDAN
UniProt P14210, whole entry, looked up: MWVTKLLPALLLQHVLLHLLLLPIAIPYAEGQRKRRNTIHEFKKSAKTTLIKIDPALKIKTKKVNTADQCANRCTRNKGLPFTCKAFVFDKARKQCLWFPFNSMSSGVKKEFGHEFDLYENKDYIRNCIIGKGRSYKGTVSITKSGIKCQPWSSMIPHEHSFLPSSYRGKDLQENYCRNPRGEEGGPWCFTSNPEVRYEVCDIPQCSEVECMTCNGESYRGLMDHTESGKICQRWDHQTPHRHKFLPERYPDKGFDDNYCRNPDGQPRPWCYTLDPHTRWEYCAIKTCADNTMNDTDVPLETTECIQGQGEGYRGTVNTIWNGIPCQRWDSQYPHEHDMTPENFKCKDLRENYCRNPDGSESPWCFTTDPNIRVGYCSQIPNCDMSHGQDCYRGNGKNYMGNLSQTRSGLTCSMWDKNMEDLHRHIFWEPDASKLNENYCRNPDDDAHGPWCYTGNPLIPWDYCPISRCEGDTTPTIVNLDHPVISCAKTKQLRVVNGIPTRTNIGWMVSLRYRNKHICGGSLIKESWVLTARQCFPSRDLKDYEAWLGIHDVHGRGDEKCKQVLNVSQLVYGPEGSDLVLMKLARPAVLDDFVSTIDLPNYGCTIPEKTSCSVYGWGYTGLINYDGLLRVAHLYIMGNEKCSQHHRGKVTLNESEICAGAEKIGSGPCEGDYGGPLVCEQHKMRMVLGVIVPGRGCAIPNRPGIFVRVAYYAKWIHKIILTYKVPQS
UniProt Q969F1: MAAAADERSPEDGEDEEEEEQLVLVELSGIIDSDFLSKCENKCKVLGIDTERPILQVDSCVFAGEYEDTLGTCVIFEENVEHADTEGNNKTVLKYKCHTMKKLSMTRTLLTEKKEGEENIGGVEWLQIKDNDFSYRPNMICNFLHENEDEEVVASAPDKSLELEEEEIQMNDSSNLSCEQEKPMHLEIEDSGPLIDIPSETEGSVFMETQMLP
UniProt Q6PII5: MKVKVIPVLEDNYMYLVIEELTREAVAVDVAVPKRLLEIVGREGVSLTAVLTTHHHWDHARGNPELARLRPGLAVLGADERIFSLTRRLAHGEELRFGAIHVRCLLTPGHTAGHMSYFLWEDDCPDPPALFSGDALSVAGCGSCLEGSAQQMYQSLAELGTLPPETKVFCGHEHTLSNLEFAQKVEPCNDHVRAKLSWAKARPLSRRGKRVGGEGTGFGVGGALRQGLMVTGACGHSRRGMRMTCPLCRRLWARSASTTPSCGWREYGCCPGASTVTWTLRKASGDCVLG
UniProt Q8N3Z3: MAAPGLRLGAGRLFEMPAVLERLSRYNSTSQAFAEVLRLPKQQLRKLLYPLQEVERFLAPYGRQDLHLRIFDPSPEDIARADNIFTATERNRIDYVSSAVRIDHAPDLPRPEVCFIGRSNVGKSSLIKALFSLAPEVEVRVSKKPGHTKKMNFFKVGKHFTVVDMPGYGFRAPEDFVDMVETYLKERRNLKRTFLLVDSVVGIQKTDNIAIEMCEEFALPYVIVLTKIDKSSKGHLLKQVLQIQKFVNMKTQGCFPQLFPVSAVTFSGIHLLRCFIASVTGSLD
UniProt P08263: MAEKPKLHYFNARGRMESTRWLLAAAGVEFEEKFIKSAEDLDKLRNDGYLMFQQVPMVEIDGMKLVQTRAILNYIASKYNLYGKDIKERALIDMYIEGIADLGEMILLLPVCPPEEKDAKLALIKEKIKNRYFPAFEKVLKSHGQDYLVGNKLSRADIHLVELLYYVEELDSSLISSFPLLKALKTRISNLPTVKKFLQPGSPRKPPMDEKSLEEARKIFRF
UniProt P42357: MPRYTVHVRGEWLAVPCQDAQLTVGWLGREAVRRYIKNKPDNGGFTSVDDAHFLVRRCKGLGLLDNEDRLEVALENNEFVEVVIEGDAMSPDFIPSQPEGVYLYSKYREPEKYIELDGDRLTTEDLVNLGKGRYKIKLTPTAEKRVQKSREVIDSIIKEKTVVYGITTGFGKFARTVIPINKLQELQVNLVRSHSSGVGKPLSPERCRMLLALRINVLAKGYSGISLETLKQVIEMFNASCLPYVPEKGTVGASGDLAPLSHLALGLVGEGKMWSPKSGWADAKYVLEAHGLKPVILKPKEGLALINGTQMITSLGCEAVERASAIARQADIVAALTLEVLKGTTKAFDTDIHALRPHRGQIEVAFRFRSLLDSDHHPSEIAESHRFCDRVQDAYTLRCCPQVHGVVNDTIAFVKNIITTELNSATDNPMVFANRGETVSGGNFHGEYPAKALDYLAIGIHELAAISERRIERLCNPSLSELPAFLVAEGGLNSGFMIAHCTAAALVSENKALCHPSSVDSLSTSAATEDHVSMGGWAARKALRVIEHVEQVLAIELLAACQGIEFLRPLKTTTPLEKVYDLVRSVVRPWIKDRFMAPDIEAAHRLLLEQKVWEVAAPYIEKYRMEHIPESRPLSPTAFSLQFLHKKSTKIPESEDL
UniProt Q9Y5Q9: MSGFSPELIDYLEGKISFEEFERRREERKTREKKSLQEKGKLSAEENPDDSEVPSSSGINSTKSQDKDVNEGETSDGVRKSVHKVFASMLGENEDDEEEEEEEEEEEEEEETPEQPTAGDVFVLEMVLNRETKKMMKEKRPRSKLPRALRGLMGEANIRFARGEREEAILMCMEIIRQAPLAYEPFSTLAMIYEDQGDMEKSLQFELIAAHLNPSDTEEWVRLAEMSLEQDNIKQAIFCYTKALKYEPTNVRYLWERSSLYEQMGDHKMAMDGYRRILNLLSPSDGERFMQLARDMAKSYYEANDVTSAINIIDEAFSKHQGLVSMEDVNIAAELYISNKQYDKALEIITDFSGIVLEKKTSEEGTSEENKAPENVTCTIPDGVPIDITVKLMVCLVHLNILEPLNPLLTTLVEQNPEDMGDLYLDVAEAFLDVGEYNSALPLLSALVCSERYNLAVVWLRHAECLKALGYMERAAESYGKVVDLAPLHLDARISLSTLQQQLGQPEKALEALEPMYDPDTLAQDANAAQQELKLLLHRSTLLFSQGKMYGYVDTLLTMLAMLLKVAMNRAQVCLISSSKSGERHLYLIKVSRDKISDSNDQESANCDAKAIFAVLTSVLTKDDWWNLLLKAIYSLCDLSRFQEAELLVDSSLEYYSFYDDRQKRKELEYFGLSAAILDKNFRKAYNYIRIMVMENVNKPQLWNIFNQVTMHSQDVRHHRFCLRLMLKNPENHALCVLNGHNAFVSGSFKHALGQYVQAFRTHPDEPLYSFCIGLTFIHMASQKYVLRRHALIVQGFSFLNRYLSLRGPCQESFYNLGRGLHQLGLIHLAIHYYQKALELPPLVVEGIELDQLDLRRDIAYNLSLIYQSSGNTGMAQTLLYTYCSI
UniProt Q15011: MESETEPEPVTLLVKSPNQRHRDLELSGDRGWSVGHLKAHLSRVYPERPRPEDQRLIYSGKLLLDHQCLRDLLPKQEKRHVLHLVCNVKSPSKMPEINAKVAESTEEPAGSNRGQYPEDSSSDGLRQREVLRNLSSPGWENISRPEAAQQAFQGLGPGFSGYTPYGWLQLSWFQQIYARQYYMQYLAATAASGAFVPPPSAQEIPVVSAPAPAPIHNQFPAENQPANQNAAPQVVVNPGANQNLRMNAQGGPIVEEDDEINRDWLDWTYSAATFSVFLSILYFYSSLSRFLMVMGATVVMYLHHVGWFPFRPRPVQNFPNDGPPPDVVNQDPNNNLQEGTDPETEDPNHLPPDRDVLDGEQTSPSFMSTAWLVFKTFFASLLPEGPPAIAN
UniProt Q8N442: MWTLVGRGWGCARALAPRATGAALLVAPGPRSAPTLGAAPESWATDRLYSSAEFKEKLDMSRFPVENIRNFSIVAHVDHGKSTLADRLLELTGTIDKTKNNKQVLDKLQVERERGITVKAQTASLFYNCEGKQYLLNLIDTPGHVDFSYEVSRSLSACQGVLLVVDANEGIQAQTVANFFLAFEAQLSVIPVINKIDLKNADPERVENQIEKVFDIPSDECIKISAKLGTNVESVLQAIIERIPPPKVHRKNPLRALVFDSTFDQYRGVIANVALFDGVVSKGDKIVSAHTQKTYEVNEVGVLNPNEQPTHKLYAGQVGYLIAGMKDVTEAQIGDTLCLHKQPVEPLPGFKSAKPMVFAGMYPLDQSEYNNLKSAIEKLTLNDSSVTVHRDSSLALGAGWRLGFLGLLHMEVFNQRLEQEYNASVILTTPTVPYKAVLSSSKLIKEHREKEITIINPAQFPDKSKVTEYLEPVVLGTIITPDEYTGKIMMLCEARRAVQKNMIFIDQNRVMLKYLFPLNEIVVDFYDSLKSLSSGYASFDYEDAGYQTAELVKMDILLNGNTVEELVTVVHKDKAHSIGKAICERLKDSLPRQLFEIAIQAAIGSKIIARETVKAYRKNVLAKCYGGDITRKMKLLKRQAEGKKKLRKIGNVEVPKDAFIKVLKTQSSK
UniProt Q14469: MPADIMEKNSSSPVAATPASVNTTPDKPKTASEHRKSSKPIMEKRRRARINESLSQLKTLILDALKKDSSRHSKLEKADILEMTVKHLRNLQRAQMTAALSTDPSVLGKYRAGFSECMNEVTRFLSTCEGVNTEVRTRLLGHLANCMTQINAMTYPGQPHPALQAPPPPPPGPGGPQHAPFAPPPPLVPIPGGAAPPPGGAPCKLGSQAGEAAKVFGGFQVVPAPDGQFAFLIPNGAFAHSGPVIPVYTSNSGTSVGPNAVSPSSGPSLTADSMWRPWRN
UniProt Q8IYU2: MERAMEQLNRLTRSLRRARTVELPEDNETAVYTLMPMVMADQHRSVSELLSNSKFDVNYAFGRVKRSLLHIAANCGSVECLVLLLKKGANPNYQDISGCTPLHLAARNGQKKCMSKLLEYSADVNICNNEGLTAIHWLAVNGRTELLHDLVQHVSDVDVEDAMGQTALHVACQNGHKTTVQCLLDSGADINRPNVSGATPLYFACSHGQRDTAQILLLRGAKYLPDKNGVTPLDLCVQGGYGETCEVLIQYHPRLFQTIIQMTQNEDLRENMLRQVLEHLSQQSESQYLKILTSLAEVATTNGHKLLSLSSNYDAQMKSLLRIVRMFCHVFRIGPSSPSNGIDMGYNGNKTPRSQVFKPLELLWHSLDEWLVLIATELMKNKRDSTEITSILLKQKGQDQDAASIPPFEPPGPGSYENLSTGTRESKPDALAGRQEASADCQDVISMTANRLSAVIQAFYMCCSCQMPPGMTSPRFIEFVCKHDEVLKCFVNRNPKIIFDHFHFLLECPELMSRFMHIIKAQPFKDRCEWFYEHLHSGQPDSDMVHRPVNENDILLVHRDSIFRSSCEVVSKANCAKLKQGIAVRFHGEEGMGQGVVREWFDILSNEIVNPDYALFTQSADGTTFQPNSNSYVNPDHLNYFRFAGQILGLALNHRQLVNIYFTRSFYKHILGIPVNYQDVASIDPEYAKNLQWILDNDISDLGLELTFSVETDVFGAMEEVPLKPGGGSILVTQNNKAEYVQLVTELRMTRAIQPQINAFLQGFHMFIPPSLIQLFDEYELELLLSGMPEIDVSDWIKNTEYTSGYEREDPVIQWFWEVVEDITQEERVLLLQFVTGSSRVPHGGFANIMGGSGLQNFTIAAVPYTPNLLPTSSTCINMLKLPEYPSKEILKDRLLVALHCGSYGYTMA
UniProt Q6Y1H2: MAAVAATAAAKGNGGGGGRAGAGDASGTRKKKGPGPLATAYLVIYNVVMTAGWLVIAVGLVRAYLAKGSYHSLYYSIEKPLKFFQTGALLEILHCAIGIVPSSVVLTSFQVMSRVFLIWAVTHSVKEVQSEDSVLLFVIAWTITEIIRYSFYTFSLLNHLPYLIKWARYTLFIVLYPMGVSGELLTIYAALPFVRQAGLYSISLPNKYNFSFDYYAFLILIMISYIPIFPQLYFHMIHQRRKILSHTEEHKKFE

compound: C1CN(CCC1(CC2=CC=C(C=C2)Cl)N)C3=NC=NC4=C3C=CN4; test: log2 fold change, soluble protein after heating vs DMSO (PISA); higher = thermal stabilisation; K562 cells, 10 uM, 30 min; active = over 0.2 and 3.5 SD of the protein, either way, in both replicates (recomputed)
Summary of the method: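 K562 cells at 2×10^6 cells/mL were treated with 10 μM compound for 30 min. Aliquots were heated for 3 min across 48°C-58°C, pooled, and extracted in PBS with 0.5% NP-40 at 4°C; soluble protein was the supernatant after 21,000xg for 90 min. Soluble protein was quantified by TMTpro 16plex LC-MS/MS with channel sums equalised, and reported as log2 fold change in thermal stability against DMSO controls, with values from duplicates.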

log2 fold change, inactive:
HGFAC (UniProt Q04756) 0.221
H3-3A (UniProt P84243) -0.218
H2AFY (UniProt O75367) -0.113
HGF (UniProt P14210) 0.265
GTF3C6 (UniProt Q969F1) -0.042
HAGHL (UniProt Q6PII5) 0.026
HCFC1 (UniProt P51610) -0.226
GTPBP8 (UniProt Q8N3Z3) 0.13
GSTA1 (UniProt P08263) 0.06
HERC2 (UniProt O95714) -0.045
HAL (UniProt P42357) -0.173
HAUS5 (UniProt O94927) -0.203
GTF2H4 (UniProt Q92759) 0.098
GTF3C3 (UniProt Q9Y5Q9) 0.037
GTPBP4 (UniProt Q9BZE4) -0.263
HERPUD1 (UniProt Q15011) -0.001
GUF1 (UniProt Q8N442) -0.002
HEATR3 (UniProt Q7Z4Q2) 0.032
HES1 (UniProt Q14469) -0.174
HACE1 (UniProt Q8IYU2) -0.027
HACD2 (UniProt Q6Y1H2) 0.179

As a short view, part of the list above.
log2 fold change, inactive:
HCFC1 (UniProt P51610) -0.226
GTPBP8 (UniProt Q8N3Z3) 0.13
